Reference: patent publication US20220026420A1, “MOLECULES AND METHODS FOR IMPROVED IMMUNODETECTION OF SMALL MOLECULES SUCH AS HISTAMINE” (PRESIDENT AND FELLOWS OF HARVARD COLLEGE, priority 2018, published 2022)
Some results were stated once for a whole list of compounds, not compound by compound.

Tested on: anti-histamine antibody
Assay: Competitive histamine ELISA with PEG linkers on streptavidin plates, anti-IgG HRP detection
Format: binding
Details: 1 h incubation, FIG. 11
Method: To identify an antibody that recognizes free histamine with improved (lower) binding affinities, we used the PEG-mono-histidine linker (Structure 1) as a target with antibodies that we previously screened with BSA-histamine, i.e., the antibodies listed in FIG. 3A. […] The monovalent histidine linker (25 μM) 86 was added for 1 hour, and then 5 μg ml^−1 anti-histamine antibody was incubated with different concentrations of soluble histamine for 1 hour at room temperature on a shaker 88. Finally, anti-IgG labelled HRP 810 was used to detect the bound antibodies.
The monovalent histidine linker (25 μM) 86 was added for 1 hour, and then 5 μg ml^−1 anti-histamine antibody was incubated with different concentrations of soluble histamine for 1 hour at room temperature on a shaker 88. Finally, anti-IgG labelled HRP 810 was used to detect the bound antibodies.
Histamine detection assay could be performed in two formats. The first format includes the immobilization of histamine conjugates to the solid support while the second format includes the immobilization of anti-histamine antibody on the solid support. For the immobilization of histamine conjugates the immobilization sample was prepared in 0.2 M carbonate-bicarbonate buffer (pH 9.4). Immobilisation samples herein refers to BSA-histamine, Streptavidin, and not limited to BSA-Histidine Samples. […]

NC(Cc1c[nH]cn1)C(=O)NCCOCCOCCOCCOCCOCCOCCNC(=O)CCCCC1SC[C@H]2NC(=O)N[C@@H]12 (some centres unmarked) [PEG-mono Histidine, Biotin-PEG-Mono-Histidine]
sensitivity to free histamine (grey region, lower limit of clinically relevant range): < 5 nM

NC(=O)C(CCCCNC(=O)C(CCCCNC(=O)C(N)Cc1c[nH]cn1)NC(=O)C(N)Cc1c[nH]cn1)NC(=O)CCOCCOCCOCCOCCNC(=O)CCCCC1SC[C@H]2NC(=O)N[C@@H]12 (some centres unmarked) [PEG-dual Histidine, Biotin-PEG-Dual-Histidine]
sensitivity to free histamine (grey region, lower limit of clinically relevant range): < 5 nM
